Assay results: PubChem BioAssay (NCATS)
This list was built around the results that the source calls inconclusive (neither active nor inactive); the mix of calls is not that of the screen. For some assays here: Potencies of inconclusive entries are doubtful fits and often do not repeat. Activity calls are given as the source filed them. The call rests on the fitted dose curve; in most records, active means well fitted curve in the direction sought with a large enough effect; inconclusive means small, poorly fitted or top-dose-only effect, or another doubt; inactive means no such curve, though single readings can be large; an effect the other way counts as inactive or inconclusive.

What was measured:
[1] = Quantitative High-Throughput drug screen in 47 multiple myeloma cell lines against the NCATS MIPE library collection: KMS20_JCRB cell viability assay (AID 1918973); conditions: CellTiter-Glo ATP, 48 h; viability (% of DMSO): at 45.8 µM (top of the series); further: nearly all actives have a fitted effect of over 45% in size; further: potency means the concentration at half of the fitted maximal effect
Procedure, shortened: (§1)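 CellTiter-Glo ATP luminescence gave viability after 48 h compound treatment at 37C of 500 multiple myeloma cells per well. Normalisation used DMSO-only wells as 100% and media-only wells as 0% viability; primary qHTS of approved and investigational drugs.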

[2] = Quantitative High-Throughput drug screen in 47 multiple myeloma cell lines against the NCATS MIPE library collection: KMS21BM_JCRB cell viability assay (AID 1918974); conditions: ATP luminescence, 48 h; viability: at 45.8 µM (top of the series) unless noted; further: potency means the concentration at half of the fitted maximal effect
Procedure, shortened: as §1

[3] = Quantitative High-Throughput drug screen in 47 multiple myeloma cell lines against the NCATS MIPE library collection: KMS26_JCRB cell viability assay (AID 1918975); conditions: KMS26 myeloma cells viability, CellTiter-Glo ATP, 48 h; viability (% of DMSO): at 45.8 µM (top of the series); further: nearly all actives have a fitted effect of over 45% in size; further: potency means the concentration at half of the fitted maximal effect
Procedure, shortened: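 Relative luminescence from CellTiter-Glo served as the viability signal, referenced to DMSO-treated (100%) and cell-free medium (0%) controls. Treatment lasted 48 hours at 37C with 500 cells per well.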

[4] = Quantitative High-Throughput drug screen in 47 multiple myeloma cell lines against the NCATS MIPE library collection: MMM1_PLB cell viability assay (AID 1918976); further: nearly all actives have a fitted effect of over 35% in size; further: potency means the concentration at half of the fitted maximal effect
Procedure, shortened: (§2)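 qHTS format: cells plated (500/well), pin-dosed with MIPE 4.0 compounds, kept 48 h at 37 °C. Readout was CellTiter-Glo luminescence, median RLU.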

[5] = Quantitative High-Throughput drug screen in 47 multiple myeloma cell lines against the NCATS MIPE library collection: NCIH929_DSMZ cell viability assay (AID 1918978); further: nearly all actives have a fitted effect of over 35% in size
Procedure, shortened: as §2

[6] = Quantitative High-Throughput drug screen in 47 multiple myeloma cell lines against the NCATS MIPE library collection: MM1S_ATCC cell viability assay (AID 1918980); further: nearly all actives have a fitted effect of over 45% in size; further: potency means the concentration at half of the fitted maximal effect
Procedure, shortened: as §2

[7] = Quantitative High-Throughput drug screen in 47 multiple myeloma cell lines against the NCATS MIPE library collection: MM1R_ATCC cell viability assay (AID 1918981); further: nearly all actives have a fitted effect of over 35% in size; further: potency means the concentration at half of the fitted maximal effect
Procedure, shortened: as §2

[8] = Quantitative High-Throughput drug screen in 47 multiple myeloma cell lines against the NCATS MIPE library collection: LP1_DSMZ cell viability assay (AID 1918982); conditions: LP1 myeloma viability, CellTiter-Glo ATP luminescence, 48 h; viability (% of control): at 45.8 µM (top of the series); further: nearly all actives have a fitted effect of over 35% in size; further: potency means the concentration at half of the fitted maximal effect
Procedure, shortened: as §2

[9] = Quantitative High-Throughput drug screen in 47 multiple myeloma cell lines against the NCATS MIPE library collection: L363_DSMZ cell viability assay (AID 1918984); conditions: L363 myeloma viability, CellTiter-Glo ATP luminescence, 48 h; viability (% of control): at 45.8 µM (top of the series); further: nearly all actives have a fitted effect of over 40% in size; further: potency means the concentration at half of the fitted maximal effect
Procedure, shortened: as §2

[10] = Quantitative High-Throughput drug screen in 47 multiple myeloma cell lines against the NCATS MIPE library collection: KMS34_JCRB cell viability assay (AID 1918985); conditions: KMS34 myeloma viability, CellTiter-Glo ATP luminescence, 48 h; viability, percent of control: at 45.8 µM (top of the series); further: nearly all actives have a fitted effect of over 40% in size; further: potency means the concentration at half of the fitted maximal effect
Procedure, shortened: as §2

[11] = Quantitative High-Throughput drug screen in 47 multiple myeloma cell lines against the NCATS MIPE library collection: OCIMY7_PLB cell viability assay (AID 1918987); conditions: OCI-MY7 myeloma viability, CellTiter-Glo ATP, 48 h; viability (% of DMSO): at 45.8 µM (top of the series); further: nearly all actives have a fitted effect of over 65% in size; further: potency means the concentration at half of the fitted maximal effect
Procedure, shortened: as §2

[12] = Quantitative High-Throughput drug screen in 47 multiple myeloma cell lines against the NCATS MIPE library collection: OCIMY5_PLB cell viability assay (AID 1918988); conditions: OCI-MY5 myeloma viability, ATP luminescence, 48 h; viability, % of control: at 45.8 µM (top of the series); further: nearly all actives have a fitted effect of over 65% in size; further: potency means the concentration at half of the fitted maximal effect;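 on viability, % of control: 100% = DMSO-treated wells and 0% = wells with media alone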
Procedure, shortened: as §2

[13] = Quantitative High-Throughput drug screen in 47 multiple myeloma cell lines against the NCATS MIPE library collection: OPM1_PLB cell viability assay (AID 1918989); further: nearly all actives have a fitted effect of over 40% in size
Procedure, shortened: as §2

[14] = Quantitative High-Throughput drug screen in 47 multiple myeloma cell lines against the NCATS MIPE library collection: SKMM1_PLB cell viability assay (AID 1919863); conditions: SKMM1 myeloma viability, CellTiter-Glo ATP, 48 h; viability: active compounds read low; further: nearly all actives have a fitted effect of over 35% in size; further: potency means the concentration at half of the fitted maximal effect
Procedure, shortened: as §2

[15] = Quantitative High-Throughput drug screen in 47 multiple myeloma cell lines against the NCATS MIPE library collection: U266_ATCC cell viability assay (AID 1919864); conditions: U266 myeloma viability, CellTiter-Glo ATP luminescence, 48 h; viability (% of DMSO control): at 45.8 µM (top of the series); further: nearly all actives have a fitted effect of over 35% in size; further: potency means the concentration at half of the fitted maximal effect
Procedure, shortened: as §2

[16] = Quantitative High-Throughput drug screen in 47 multiple myeloma cell lines against the NCATS MIPE library collection: MOLP8_DSMZ cell viability assay (AID 1918977); conditions: MOLP8 myeloma viability, CellTiter-Glo ATP luminescence, 48 h; viability (% of control): at 45.8 µM (top of the series); further: nearly all actives have a fitted effect of over 45% in size; further: potency means the concentration at half of the fitted maximal effect
Procedure, shortened: as §2

[17] = Quantitative High-Throughput drug screen in 47 multiple myeloma cell lines against the NCATS MIPE library collection: KMS28PE_JCRB cell viability assay (AID 1918983); further: nearly all actives have a fitted effect of over 35% in size; further: potency means the concentration at half of the fitted maximal effect
Procedure, shortened: as §2

[18] = Quantitative High-Throughput drug screen in 47 multiple myeloma cell lines against the NCATS MIPE library collection: XG6_PLB cell viability assay (AID 1919865); conditions: XG6 myeloma viability, CellTiter-Glo ATP luminescence, 48 h; viability (% of control): at 45.8 µM (top of the series); further: nearly all actives have a fitted effect of over 40% in size; further: potency means the concentration at half of the fitted maximal effect
Procedure, shortened: as §2

[19] = Quantitative High-Throughput drug screen in 47 multiple myeloma cell lines against the NCATS MIPE library collection: XG1_PLB cell viability assay (AID 1919866); conditions: CellTiter-Glo ATP, 48 h; viability: at 45.8 µM (top of the series); further: nearly all actives have a fitted effect of over 35% in size; further: potency means the concentration at half of the fitted maximal effect
Procedure, shortened: as §2

[20] = Quantitative High-Throughput drug screen in 47 multiple myeloma cell lines against the NCATS MIPE library collection: OCIMY1_PLB cell viability assay (AID 1918979); conditions: OCI-MY1 myeloma viability, CellTiter-Glo ATP, 48 h; viability: at 45.8 µM (top of the series) unless noted; further: nearly all actives have a fitted effect of over 35% in size; further: potency means the concentration at half of the fitted maximal effect
Procedure, shortened: as §2

NC(=O)c1cccnc1
inactive: Potency [1] | Potency [5] | Potency [6] | Potency [7] | Potency [8] | Potency [12] | Potency [13] | viability [14] 105% | Potency [15]
inconclusive: Potency [2] 0.332 µM [cytotoxic, full curve, poor fit] | Potency [3] 3.72 µM [cytotoxic, full curve, poor fit] | Potency [4] 1.48 µM [cytotoxic, partial curve, poor fit] | Potency [9] 2.96 µM [cytotoxic, full curve, poor fit] | Potency [10] 2.96 µM [cytotoxic, full curve, poor fit] | Potency [11] 37.2 µM [cytotoxic, single point]

CC1(C)OC2CC3C4CC(F)C5=CC(=O)C=CC5(C)C4C(O)CC3(C)[C@]2(C(=O)CO)O1 (stereo partly drawn)
inactive: Potency [1] | Potency [3] | Potency [4] | Potency [7] | Potency [17] | Potency [13] | viability [14] 131% | Potency [15] | Potency [19]
active: Potency [2] 0.0083 µM | Potency [9] 0.132 µM
inconclusive: Potency [16] 0.0235 µM [cytotoxic, full curve, poor fit] | Potency [11] 0.0264 µM [rising, full curve, poor fit] | Potency [12] 0.0662 µM [cytotoxic, full curve, poor fit] | Potency [18] 0.0166 µM [rising, full curve, poor fit]

CN(C)c1nc(Cc2ccc(NC(=O)c3ccc(C(F)(F)F)cc3)cc2)nc(N(C)C)c1CC(=O)O
inactive: Potency [3] | Potency [11] | Potency [15] | Potency [19]
inconclusive: Potency [1] 10.5 µM [rising, full curve] | Potency [2] 0.0235 µM [cytotoxic, full curve, poor fit] | Potency [4] 5.9 µM [cytotoxic, partial curve, poor fit] | Potency [16] 0.743 µM [cytotoxic, full curve, poor fit] | Potency [8] 0.0105 µM [cytotoxic, full curve, poor fit] | Potency [9] 37.2 µM [cytotoxic, single point] | Potency [10] 37.2 µM [cytotoxic, single point] | Potency [12] 0.0935 µM [cytotoxic, full curve, poor fit] | Potency [18] 0.0019 µM [rising, full curve, poor fit]

CC[C@H](C)C(=O)O[C@H]1C[C@H](O)C=C2C=C[C@H](C)[C@H](CC[C@@H](O)C[C@@H](O)CC(=O)O)[C@H]21
inconclusive: Potency [3] 8.33 µM [cytotoxic, single point] | Potency [4] 2.96 µM [cytotoxic, partial curve, poor fit] | Potency [7] 14.8 µM [cytotoxic, partial curve, poor fit]
inactive: Potency [1] | Potency [2] | Potency [5] | Potency [20] | Potency [6] | Potency [9] | Potency [10] | Potency [11] | Potency [12] | viability [14] 102% | Potency [19]

Oc1ccc(C2CNCCc3c2cc(O)c(O)c3Cl)cc1 (stereo not drawn)
active: Potency [2] 18.7 µM | Potency [3] 1.32 µM | Potency [10] 14.8 µM
inconclusive: Potency [4] 37.2 µM [cytotoxic, single point] | Potency [9] 7.43 µM [cytotoxic, partial curve, poor fit] | Potency [11] 33.2 µM [cytotoxic, single point] | Potency [18] 26.4 µM [cytotoxic, single point]
inactive: Potency [1] | Potency [16] | Potency [8] | viability [14] 103% | Potency [15]

CC(=O)O[C@@]12CO[C@H]1C[C@H](O)[C@@]1(C)C(=O)[C@H](O)C3=C(C)[C@@H](OC(=O)C(O)[C@@H](NC(=O)OC(C)(C)C)c4ccccc4)C[C@@](O)([C@@H](OC(=O)c4ccccc4)[C@@H]21)C3(C)C (stereo partly drawn)
inconclusive: Potency [1] 0.0118 µM [rising, full curve, poor fit] | Potency [2] 33.2 µM [rising, single point] | Potency [3] 0.0033 µM [rising, full curve, poor fit] | Potency [4] 2.96 µM [cytotoxic, full curve, poor fit]
inactive: Potency [16] | Potency [6] | Potency [8] | Potency [9] | Potency [10] | Potency [11] | Potency [12] | Potency [18] | Potency [19]

O=[N+]([O-])c1cn2c(n1)OC[C@@H](OCc1ccc(OC(F)(F)F)cc1)C2
inconclusive: Potency [1] 16.6 µM [cytotoxic, partial curve, poor fit] | Potency [2] 0.0059 µM [cytotoxic, full curve, poor fit] | Potency [7] 10.5 µM [cytotoxic, partial curve, poor fit] | Potency [17] 11.8 µM [cytotoxic, partial curve, poor fit] | Potency [9] 6.62 µM [rising, partial curve, poor fit] | Potency [11] 1.48 µM [cytotoxic, full curve, poor fit] | Potency [14] 0.132 µM [cytotoxic, full curve, poor fit]
active: Potency [4] 8.33 µM
inactive: Potency [3] | Potency [5] | Potency [20] | Potency [8] | Potency [10] | Potency [12] | Potency [13] | Potency [18]

Nc1nccc(-c2ccc3noc(-c4ccc(Cl)cc4)c3c2)n1
inconclusive: Potency [1] 0.332 µM [cytotoxic, full curve, poor fit] | Potency [2] 5.26 µM [rising, partial curve] | Potency [3] 0.469 µM [rising, full curve, poor fit] | Potency [4] 0.0418 µM [cytotoxic, full curve, poor fit] | Potency [7] 37.2 µM [cytotoxic, single point] | Potency [10] 14.8 µM [cytotoxic, partial curve, poor fit] | Potency [14] 0.0662 µM [cytotoxic, full curve, poor fit]
active: Potency [11] 20.9 µM | Potency [12] 18.7 µM | Potency [18] 2.64 µM
inactive: Potency [16] | Potency [9]

NC(N)=Nc1nc(CSCCC(N)=NS(N)(=O)=O)cs1
inconclusive: Potency [1] 7.43 µM [cytotoxic, partial curve, poor fit] | Potency [2] 3.72 µM [cytotoxic, partial curve, poor fit] | Potency [3] 16.6 µM [cytotoxic, partial curve, poor fit] | Potency [4] 0.0332 µM [rising, full curve] | Potency [20] 0.0118 µM [rising, full curve, poor fit] | Potency [9] 5.26 µM [cytotoxic, full curve, poor fit] | Potency [14] 0.0105 µM [rising, full curve, poor fit]
inactive: Potency [8] | Potency [10]
active: Potency [19] 14.8 µM

O=C(NOC[C@H](O)CO)c1ccc(F)c(F)c1Nc1ccc(I)cc1F
inactive: Potency [3] | Potency [12]
active: Potency [1] 0.0662 µM | Potency [2] 0.0296 µM | Potency [11] 0.0148 µM
inconclusive: Potency [4] 0.0012 µM [cytotoxic, full curve, poor fit] | Potency [16] 1.32 µM [cytotoxic, partial curve, poor fit] | Potency [9] 14.8 µM [cytotoxic, partial curve, poor fit] | Potency [10] 0.0526 µM [rising, full curve, poor fit] | Potency [14] 4.18 µM [cytotoxic, partial curve, poor fit]

CN(C)c1nc(N(C)C)nc(N(C)C)n1
inactive: Potency [1] | Potency [3] | Potency [9] | Potency [10]
inconclusive: Potency [2] 33.2 µM [rising, partial curve] | Potency [4] 1.18 µM [cytotoxic, full curve, poor fit] | Potency [16] 20.9 µM [cytotoxic, partial curve] | Potency [6] 33.2 µM [cytotoxic, single point] | Potency [11] 26.4 µM [cytotoxic, single point] | Potency [12] 0.166 µM [cytotoxic, full curve, poor fit] | Potency [14] 13.2 µM [cytotoxic, partial curve, poor fit] | Potency [15] 33.2 µM [cytotoxic, single point] | Potency [18] 0.469 µM [cytotoxic, full curve, poor fit]

CC(O)C1C(=O)N2C(C(=O)O)=C(SC3CNC(C(=O)N(C)C)C3)C(C)C12 (stereo not drawn)
inconclusive: Potency [1] 0.0833 µM [cytotoxic, full curve, poor fit] | Potency [2] 4.69 µM [rising, partial curve, poor fit] | Potency [3] 0.0059 µM [rising, full curve, poor fit] | Potency [4] 0.0526 µM [rising, full curve, poor fit] | Potency [6] 0.0066 µM [rising, full curve, poor fit] | Potency [7] 0.0042 µM [rising, full curve] | Potency [8] 0.0209 µM [rising, full curve] | Potency [9] 0.332 µM [rising, full curve, poor fit] | Potency [11] 2.64 µM [cytotoxic, full curve, poor fit] | Potency [14] 0.001 µM | Potency [15] 0.59 µM [rising, full curve, poor fit]
inactive: Potency [10] | Potency [12] | Potency [13] | Potency [19]
